Binding data for one substance are collected here from PMC9217539.

Sequences of proteins named here, by UniProt entry; tags and fusion partners are left off.
UniProt P27986: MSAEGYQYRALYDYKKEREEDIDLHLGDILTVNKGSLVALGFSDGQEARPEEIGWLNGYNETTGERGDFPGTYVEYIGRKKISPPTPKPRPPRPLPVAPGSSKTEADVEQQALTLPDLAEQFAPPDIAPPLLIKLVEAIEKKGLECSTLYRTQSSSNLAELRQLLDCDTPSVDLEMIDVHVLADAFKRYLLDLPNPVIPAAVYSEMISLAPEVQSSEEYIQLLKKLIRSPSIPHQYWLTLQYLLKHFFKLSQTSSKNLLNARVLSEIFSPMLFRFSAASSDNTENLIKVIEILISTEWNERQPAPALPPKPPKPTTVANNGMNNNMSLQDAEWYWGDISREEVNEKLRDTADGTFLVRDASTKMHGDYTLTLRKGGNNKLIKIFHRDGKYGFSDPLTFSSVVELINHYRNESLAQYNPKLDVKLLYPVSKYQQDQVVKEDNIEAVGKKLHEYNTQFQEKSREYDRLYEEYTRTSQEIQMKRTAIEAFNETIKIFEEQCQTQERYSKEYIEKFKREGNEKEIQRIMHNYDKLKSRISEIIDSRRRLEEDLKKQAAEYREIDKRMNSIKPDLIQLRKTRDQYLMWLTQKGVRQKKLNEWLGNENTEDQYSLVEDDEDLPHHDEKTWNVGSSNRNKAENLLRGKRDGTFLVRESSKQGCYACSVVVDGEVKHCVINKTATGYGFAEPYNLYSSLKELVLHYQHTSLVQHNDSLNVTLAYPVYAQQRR

The target in the assay is T1, Rab22a (UniProt Q9UL26).
T1 sequence: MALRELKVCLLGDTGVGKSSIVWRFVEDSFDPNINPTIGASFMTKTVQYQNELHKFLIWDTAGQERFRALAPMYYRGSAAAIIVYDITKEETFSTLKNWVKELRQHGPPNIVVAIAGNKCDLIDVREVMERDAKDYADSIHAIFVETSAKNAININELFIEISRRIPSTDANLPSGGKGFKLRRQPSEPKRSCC
Briefly: co-IP; TPC1 and K1 cells transfected with Rab22a plasmid, 48 h; NP40 lysis buffer; Rab22a antibody or control IgG overnight at 4°C, Protein A+G agarose; western blot. (A western blot detects proteins with antibodies after separation by electrophoresis.)

These are yes or no findings as the source states them, for the method shown. Binding seen in cells or lysates may run through a third protein. Some binding calls cover weakened binding; strength is not graded here.

As to PI3Kp85α (from UniProt P27986 1-724), the binding result is given as “binds”.
